This passage reports binding results from paper PMC7053138.

This test deals with barley RAC1 (wild type), yeast two-hybrid fusion (barley (Hordeum vulgare)) (UniProt Q70WD7). The test can be described thus: two-hybrid; targeted yeast two-hybrid in strain AH109; bait- and prey-transformed cells dropped on SD -L-W (transformation) or SD -L,-W,-A-H (interaction-selective) medium; empty pGADT7 and pGBKT7 as auto-activity controls.

Results are given in words; binding and its absence hold for the method and conditions named. Binding calls can cover weak binding; strength is not graded here.

As to “barley ROP-Interactive Partner-a (RIPa), yeast two-hybrid fusion (from UniProt F2DI37)”, the binding result was “binds”.
